No constants are given. Whether binding was seen depends on the method and setting. Binding seen in cells or lysates may run through a third protein. Binding can be weak; no strength is given.
Biological target: PAK1-RHO binding domain (RBD) fused to GST (UniProt Q13153)
Assay: pull-down; bacterial lysate containing GST-PAK1-RBD as bait; total Jurkat cell lysates (wild-type, non-target shRNA, ITK knockdown) as prey; immunoblot with CDC42 and RAC1 specific antibodies

Protein sequences, listed by entry. Tags and fused reporters are not part of them. Lines headed by an entry give the natural chain unless they say otherwise; changes in a name come on top.
UniProt Q13153: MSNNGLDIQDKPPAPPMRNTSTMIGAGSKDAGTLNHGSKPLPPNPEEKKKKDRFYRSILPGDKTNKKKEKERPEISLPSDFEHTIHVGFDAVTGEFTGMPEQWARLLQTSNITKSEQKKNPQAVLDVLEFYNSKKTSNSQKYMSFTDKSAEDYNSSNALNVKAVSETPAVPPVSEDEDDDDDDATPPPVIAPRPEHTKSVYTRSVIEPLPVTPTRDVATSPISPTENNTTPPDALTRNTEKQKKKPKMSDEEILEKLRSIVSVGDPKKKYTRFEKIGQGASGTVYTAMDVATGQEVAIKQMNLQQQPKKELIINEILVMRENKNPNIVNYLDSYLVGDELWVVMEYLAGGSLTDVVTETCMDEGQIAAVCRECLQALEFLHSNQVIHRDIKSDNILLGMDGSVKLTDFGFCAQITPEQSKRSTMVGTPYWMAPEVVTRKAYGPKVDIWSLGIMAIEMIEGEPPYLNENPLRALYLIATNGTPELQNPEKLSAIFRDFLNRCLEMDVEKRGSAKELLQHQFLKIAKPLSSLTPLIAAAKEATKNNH
UniProt P60953: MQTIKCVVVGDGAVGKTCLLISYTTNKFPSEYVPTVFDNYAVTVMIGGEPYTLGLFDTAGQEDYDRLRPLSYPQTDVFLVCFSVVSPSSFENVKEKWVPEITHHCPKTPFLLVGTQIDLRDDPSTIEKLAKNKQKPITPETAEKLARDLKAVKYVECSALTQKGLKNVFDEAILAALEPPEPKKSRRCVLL

- binding: binds
Substance: CDC42, GTP-bound (activated form) (from UniProt P60953 1-191)

Reference: PMC5816632
